Data as given in PubChem BioAssay AID1117269 (University of Michigan, 2014)
The whole screen tested 714 reagents; below is a random part of them. In the full data, 49 (6.9%) were called active. 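Active means a hit in at least one line; per-line hit columns show which; some siRNA pools appear more than once.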 Not stated in the record: the amount of reagent.

Screen: 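Kinome-wide knockdown screen for regulators of TGF-beta reporter output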 (primary screen)
System: human A549 lung cancer and 1833 breast cancer (MDA-MB-231-derived) cell lines carrying a stable BTR luciferase reporter
Reagent: siRNA pool against human genes
Timing: 72 h after transfection, then 1 h TGF-beta before the read
Treatment: TGF-beta 10 ng/mL added one hour before luciferin and read-out
Measured: 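BTR reporter bioluminescence as fold change relative to non-targeting siRNA, averaging triplicates per line; knockdown for 72 h, then TGF-beta at 10 ng/mL 1 h prior to reading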
Reading the numbers: fold over scrambled siRNA, A549 and fold over scrambled siRNA, 1833: higher = more reporter light, weaker TGF-beta receptor signalling
Call rule: 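Active if a hit in A549 or 1833; a line's hit exceeds an upper quartile-based cutoff on mean log fold values, applied per plate and across the whole screen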
Meaning of the calls: active = hit in at least one line; inactive = hit in neither line

Against CPNE3, the entry reads fold over scrambled siRNA, A549 = 1.82; fold over scrambled siRNA, 1833 = 1.93; hit in A549 = not a hit in A549; hit in 1833 = not a hit in 1833; inactive.
Knock-down of KSR2 gave: fold over scrambled siRNA, A549 = 1.6; fold over scrambled siRNA, 1833 = 18.9; hit in A549 = not a hit in A549; hit in 1833 = hit in 1833.
Knock-down of MAP4K1 resulted in: fold over scrambled siRNA, A549 = 0.798; fold over scrambled siRNA, 1833 = 1.74; hit in A549 = not a hit in A549; hit in 1833 = not a hit in 1833; inactive.
Against RPS6KA4 the deposit lists fold over scrambled siRNA, A549 = 1.06; fold over scrambled siRNA, 1833 = 0.667; hit in A549 = not a hit in A549; hit in 1833 = not a hit in 1833; inactive.
Silencing of ITPKA gave: fold over scrambled siRNA, A549 = 1.66; fold over scrambled siRNA, 1833 = 4.9; hit in A549 = not a hit in A549; hit in 1833 = not a hit in 1833; inactive.
Depletion of MARK2 gave: fold over scrambled siRNA, A549 = 3.57; fold over scrambled siRNA, 1833 = 6.64; hit in A549 = not a hit in A549; hit in 1833 = not a hit in 1833; inactive.
Against HIPK4, the entry reads fold over scrambled siRNA, A549 = 3.35; fold over scrambled siRNA, 1833 = 1.81; hit in A549 = not a hit in A549; hit in 1833 = not a hit in 1833; inactive.
CSNK2B scored fold over scrambled siRNA, A549 = 2.24; fold over scrambled siRNA, 1833 = 2.08; hit in A549 = not a hit in A549; hit in 1833 = not a hit in 1833; inactive.
Knock-down of RPS6KA6 came out at: fold over scrambled siRNA, A549 = 6.33; fold over scrambled siRNA, 1833 = 7.89; hit in A549 = hit in A549; hit in 1833 = not a hit in 1833; active.
ULK3 showed fold over scrambled siRNA, A549 = 1; fold over scrambled siRNA, 1833 = 1.93; hit in A549 = not a hit in A549; hit in 1833 = not a hit in 1833; inactive.
Against PIP5K1B the deposit lists fold over scrambled siRNA, A549 = 1.59; fold over scrambled siRNA, 1833 = 3.53; hit in A549 = not a hit in A549; hit in 1833 = not a hit in 1833; inactive.
After knock-down of MAGI3 the results were fold over scrambled siRNA, A549 = 1.14; fold over scrambled siRNA, 1833 = 3.93; hit in A549 = not a hit in A549; hit in 1833 = not a hit in 1833; inactive.
For DLG4, the entry reads fold over scrambled siRNA, A549 = 1.74; fold over scrambled siRNA, 1833 = 2.86; hit in A549 = not a hit in A549; hit in 1833 = not a hit in 1833; inactive.
For BMP2K, the entry reads fold over scrambled siRNA, A549 = 2.28; fold over scrambled siRNA, 1833 = 1.8; hit in A549 = not a hit in A549; hit in 1833 = not a hit in 1833; inactive.
